In US12551536B2, “Semaglutide in medical therapy” (Novo Nordisk A/S, priority 2017, dated 2026):

Test: 52-week clinical trial of once-daily semaglutide in obese subjects without diabetes mellitus: change in body weight
Type: in vivo, human
Details: calculated as (3.0/0.08)/(3.0/0.28)
Description: This trial was designed as a 52-week, randomised, double-blind, placebo-controlled, sixteen-armed, parallel group, multi-centre, multinational trial comparing once-daily subcutaneous administration of semaglutide in five different doses (ranging from 0.05 mg/day to 0.4 mg/day) with placebo in obese subjects without diabetes mellitus. […] The trial was double-blinded between active and placebo treatment. To ensure a sufficiently large sample of men, no more than 70% of the trial population was allowed to be women and the randomisation was stratified according to sex. Subjects were randomised in a balanced manner (6:1 active:placebo).
The primary endpoint was relative change from baseline in body weight (%) at 52 weeks. Key secondary endpoints included proportion of subjects with weight loss of ≥5% or ≥10% of baseline body weight at 52 weeks as well as change in body weight from baseline to 52 weeks. […] All medical problems either observed by the site staff or the subject was reported as an adverse event and evaluated for severity and causality by the investigator. […]
Statistical analyses of effect endpoints: The primary analysis was based on a ‘jump-to-reference’ multiple imputation approach (J2R-MI). […] The primary endpoint was calculated in each complete data set and analysed using an analysis of covariance (ANCOVA) model. […]

## N^6.26-{18-[N-(17-carboxyheptadecanoyl)-L-γ-glutamyl]-10-oxo-3,6,12,15-tetraoxa-9,18-diazaoctadecanoyl}-[8-(2-amino-2-propanoic acid),34-L-arginine]human glucagon-like peptide 1(7-37) [Sema]
  Greater body weight reduction at the same level of gastrointestinal adverse events, semaglutide vs liraglutide: around 3 times
